Laboratory results from article PMC3377984 (Journal of Molecular Neuroscience, 2012).

Experiment: Caco-2 bidirectional permeability assay
Type: in vitro ADME
Conditions: human

Papp A→B at 5 µM: 0.23 ×10⁻⁶ cm/s
SMILES: CC(C)NCC(O)COc1ccc(CC(N)=O)cc1 (stereo not shown) [Atenolol control, Atenolol]
